The target in assay [1] is RECQL4 (human (endogenous in U2OS and HCT116)) (UniProt O94761).
The target in assay [2] is GFP-tagged wild-type RECQL4 (UniProt O94761). Put plainly: co-IP; GFP-tagged RECQL4 proteins immunoprecipitated with a GFP antibody from U2OS RECQL4 knockout cells expressing GFP-tagged WT or 6A RECQL4, 10 Gy with 10 min recovery; immunoblot.
The next assay addresses T1, GFP-tagged RECQL4-6A (UniProt O94761).
T1 sequence: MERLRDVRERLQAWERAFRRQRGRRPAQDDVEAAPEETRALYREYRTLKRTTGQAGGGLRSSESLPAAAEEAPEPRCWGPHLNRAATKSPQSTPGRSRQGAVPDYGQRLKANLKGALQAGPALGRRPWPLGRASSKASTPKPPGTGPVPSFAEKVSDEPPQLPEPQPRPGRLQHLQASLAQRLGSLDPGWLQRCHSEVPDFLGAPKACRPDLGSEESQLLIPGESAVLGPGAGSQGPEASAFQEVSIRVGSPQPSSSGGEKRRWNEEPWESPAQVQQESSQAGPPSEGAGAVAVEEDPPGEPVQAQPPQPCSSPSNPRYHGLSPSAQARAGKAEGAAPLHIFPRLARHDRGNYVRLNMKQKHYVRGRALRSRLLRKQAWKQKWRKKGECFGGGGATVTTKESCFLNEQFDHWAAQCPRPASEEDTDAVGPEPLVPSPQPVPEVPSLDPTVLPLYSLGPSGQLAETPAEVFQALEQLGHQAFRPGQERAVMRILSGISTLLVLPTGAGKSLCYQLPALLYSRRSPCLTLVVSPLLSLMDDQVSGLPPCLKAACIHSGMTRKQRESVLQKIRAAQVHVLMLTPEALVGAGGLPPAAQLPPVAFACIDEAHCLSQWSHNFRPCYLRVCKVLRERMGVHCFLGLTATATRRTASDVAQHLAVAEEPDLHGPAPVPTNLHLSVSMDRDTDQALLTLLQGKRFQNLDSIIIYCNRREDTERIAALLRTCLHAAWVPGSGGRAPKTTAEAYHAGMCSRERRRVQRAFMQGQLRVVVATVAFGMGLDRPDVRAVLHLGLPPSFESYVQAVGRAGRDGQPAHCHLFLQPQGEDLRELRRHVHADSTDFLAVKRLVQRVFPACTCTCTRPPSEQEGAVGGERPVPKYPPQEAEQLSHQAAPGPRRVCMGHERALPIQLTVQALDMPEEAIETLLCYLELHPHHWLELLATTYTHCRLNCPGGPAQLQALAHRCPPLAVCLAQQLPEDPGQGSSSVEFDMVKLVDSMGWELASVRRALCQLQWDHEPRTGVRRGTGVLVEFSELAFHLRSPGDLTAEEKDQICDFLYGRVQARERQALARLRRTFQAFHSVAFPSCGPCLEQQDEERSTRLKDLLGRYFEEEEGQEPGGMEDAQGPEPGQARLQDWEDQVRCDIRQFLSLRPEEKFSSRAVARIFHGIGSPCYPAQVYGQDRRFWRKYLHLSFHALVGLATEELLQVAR
Described as above.

Protein sequences, listed by entry. Tags and fused reporters are not part of them. Lines headed by an entry give the natural chain unless they say otherwise; changes in a name come on top.
UniProt P78527: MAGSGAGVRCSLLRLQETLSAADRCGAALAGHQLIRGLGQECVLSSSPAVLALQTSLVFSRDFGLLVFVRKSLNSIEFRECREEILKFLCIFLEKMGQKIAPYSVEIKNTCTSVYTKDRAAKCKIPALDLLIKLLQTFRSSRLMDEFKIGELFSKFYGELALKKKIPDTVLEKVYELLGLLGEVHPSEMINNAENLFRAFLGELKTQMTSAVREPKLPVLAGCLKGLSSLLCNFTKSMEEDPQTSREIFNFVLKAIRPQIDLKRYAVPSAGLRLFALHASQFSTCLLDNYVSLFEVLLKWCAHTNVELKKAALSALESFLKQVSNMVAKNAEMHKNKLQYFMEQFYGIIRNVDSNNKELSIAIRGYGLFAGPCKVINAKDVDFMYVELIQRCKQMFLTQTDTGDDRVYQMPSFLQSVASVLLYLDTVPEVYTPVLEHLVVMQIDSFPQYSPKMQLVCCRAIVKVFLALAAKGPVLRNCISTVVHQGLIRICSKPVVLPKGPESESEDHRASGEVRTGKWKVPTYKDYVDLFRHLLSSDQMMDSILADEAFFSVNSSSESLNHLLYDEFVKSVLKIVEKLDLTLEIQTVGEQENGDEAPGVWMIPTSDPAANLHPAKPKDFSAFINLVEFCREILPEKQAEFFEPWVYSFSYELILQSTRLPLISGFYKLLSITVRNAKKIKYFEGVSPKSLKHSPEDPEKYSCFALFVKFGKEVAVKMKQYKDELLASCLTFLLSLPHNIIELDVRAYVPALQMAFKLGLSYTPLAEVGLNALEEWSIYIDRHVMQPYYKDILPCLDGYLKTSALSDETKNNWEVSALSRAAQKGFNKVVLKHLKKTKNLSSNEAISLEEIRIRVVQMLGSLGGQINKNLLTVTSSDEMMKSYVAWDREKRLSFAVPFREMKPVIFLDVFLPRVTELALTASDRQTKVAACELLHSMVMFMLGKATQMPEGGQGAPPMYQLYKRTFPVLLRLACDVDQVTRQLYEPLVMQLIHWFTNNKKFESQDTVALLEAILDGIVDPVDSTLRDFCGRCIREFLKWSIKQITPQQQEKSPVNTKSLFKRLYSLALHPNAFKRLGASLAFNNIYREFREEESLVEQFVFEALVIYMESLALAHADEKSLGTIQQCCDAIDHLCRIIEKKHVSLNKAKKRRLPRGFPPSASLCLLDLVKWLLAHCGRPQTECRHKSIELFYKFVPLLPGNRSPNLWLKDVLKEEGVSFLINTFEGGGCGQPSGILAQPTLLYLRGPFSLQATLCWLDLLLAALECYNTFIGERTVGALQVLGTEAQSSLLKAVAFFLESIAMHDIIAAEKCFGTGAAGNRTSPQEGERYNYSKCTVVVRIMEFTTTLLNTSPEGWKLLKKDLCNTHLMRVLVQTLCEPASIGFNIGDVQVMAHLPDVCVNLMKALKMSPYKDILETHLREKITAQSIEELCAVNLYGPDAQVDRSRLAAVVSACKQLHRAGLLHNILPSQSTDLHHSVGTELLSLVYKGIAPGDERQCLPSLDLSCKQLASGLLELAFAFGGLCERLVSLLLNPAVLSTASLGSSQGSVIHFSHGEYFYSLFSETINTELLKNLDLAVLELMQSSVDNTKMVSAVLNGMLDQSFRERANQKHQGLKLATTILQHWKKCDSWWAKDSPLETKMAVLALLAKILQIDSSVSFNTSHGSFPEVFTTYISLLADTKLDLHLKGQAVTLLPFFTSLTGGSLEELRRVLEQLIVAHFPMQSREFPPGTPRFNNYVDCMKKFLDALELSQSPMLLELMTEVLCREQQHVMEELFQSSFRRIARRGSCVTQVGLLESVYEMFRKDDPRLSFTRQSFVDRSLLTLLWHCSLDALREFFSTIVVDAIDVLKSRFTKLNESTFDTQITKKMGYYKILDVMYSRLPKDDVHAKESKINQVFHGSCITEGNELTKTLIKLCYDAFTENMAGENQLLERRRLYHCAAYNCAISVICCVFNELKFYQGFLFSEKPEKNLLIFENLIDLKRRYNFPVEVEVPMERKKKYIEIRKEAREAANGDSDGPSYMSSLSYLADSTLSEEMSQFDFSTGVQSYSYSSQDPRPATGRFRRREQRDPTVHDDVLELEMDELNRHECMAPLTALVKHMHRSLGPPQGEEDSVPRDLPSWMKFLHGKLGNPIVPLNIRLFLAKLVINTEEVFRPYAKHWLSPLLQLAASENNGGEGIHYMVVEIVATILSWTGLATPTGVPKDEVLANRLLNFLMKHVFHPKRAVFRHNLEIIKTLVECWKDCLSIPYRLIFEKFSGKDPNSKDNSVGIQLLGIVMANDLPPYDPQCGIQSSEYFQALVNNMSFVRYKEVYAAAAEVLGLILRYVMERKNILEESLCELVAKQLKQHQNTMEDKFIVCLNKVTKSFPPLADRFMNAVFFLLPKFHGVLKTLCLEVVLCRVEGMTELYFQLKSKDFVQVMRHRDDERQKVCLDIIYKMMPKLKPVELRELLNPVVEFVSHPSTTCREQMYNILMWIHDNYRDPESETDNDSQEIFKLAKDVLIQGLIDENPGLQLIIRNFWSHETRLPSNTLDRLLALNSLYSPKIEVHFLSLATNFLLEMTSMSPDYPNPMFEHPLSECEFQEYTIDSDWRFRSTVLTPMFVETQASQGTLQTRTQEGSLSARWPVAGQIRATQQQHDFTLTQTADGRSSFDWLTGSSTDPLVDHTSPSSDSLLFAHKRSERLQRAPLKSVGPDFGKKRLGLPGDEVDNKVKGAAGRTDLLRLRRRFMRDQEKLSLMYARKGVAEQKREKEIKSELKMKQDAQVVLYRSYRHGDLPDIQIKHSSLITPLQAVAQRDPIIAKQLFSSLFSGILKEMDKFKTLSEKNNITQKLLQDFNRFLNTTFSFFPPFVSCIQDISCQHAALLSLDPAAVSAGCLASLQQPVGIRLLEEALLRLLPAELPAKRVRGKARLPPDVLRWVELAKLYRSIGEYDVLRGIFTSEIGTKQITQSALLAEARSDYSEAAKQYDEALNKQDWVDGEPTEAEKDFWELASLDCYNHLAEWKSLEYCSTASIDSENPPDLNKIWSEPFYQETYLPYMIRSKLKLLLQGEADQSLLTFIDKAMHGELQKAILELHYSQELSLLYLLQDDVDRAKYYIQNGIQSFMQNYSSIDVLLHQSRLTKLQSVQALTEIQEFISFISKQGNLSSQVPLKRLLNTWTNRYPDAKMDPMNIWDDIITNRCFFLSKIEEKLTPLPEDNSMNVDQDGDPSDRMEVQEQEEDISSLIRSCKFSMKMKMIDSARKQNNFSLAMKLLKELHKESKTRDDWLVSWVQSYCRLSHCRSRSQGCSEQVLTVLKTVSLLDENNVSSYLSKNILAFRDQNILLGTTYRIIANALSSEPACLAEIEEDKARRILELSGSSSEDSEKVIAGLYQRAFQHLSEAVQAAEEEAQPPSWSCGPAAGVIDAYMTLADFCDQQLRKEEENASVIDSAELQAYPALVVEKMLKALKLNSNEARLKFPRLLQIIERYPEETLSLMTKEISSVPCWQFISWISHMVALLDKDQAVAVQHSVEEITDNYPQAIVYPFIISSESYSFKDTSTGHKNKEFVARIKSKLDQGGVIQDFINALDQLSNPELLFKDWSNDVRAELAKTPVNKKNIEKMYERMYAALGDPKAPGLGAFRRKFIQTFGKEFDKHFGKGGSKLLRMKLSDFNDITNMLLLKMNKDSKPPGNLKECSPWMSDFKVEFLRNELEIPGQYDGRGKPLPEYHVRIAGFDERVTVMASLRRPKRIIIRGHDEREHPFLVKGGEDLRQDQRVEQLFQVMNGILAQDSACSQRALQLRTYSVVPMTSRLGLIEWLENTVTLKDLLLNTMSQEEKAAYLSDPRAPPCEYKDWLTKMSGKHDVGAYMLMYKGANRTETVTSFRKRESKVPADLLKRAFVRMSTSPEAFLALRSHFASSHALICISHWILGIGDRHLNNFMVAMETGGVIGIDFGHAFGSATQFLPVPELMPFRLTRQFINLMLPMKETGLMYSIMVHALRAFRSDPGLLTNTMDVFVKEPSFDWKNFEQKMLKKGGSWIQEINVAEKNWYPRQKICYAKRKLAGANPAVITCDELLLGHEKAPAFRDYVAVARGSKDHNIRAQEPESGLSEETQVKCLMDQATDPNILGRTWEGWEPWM
UniProt P12956: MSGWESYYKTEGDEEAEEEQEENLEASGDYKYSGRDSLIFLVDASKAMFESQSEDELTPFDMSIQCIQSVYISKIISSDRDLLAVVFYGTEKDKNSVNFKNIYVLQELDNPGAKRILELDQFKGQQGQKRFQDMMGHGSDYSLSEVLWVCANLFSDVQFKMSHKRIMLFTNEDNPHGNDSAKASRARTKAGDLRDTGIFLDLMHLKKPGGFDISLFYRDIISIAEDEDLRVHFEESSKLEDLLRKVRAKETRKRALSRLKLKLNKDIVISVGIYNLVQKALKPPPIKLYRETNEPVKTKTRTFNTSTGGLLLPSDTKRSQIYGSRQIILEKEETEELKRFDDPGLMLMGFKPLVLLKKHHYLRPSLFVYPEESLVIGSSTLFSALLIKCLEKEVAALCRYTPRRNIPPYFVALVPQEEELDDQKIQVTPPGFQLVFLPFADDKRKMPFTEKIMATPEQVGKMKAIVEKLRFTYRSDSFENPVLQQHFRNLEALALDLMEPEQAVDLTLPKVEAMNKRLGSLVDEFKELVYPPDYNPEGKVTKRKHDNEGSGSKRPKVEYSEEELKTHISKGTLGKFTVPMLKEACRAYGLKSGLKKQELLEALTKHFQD
UniProt Q13426: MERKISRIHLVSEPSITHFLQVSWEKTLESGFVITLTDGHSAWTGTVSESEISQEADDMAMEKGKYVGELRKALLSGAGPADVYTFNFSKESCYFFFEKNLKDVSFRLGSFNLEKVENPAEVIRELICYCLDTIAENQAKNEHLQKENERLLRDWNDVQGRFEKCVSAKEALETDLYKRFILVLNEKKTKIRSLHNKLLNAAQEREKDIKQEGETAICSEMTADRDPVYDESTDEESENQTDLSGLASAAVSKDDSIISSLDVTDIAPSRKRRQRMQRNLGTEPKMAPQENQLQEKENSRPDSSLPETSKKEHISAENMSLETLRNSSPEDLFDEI

Results are given in words; binding and its absence hold for the method and conditions named. Binding seen in cells or lysates may run through a third protein. Some results given as binding are weak or reduced against the parent protein; the word gives no strength. For some assays here: Tags and fused reporters may be left off the sequences shown.

Take DNA-PKcs (from UniProt P78527 1-4128): the binding result (in assay [1]; in assay [2]; with GFP-tagged RECQL4-6A) was “binds” each time.

Consider “Ku70/80 heterodimer (from UniProt P12956 1-609; P13010 1-732) (complex)”, for which the binding entry (in assay [1]; in assay [2]; with GFP-tagged RECQL4-6A) was “binds” throughout.

As to XRCC4 (from UniProt Q13426 1-336), the binding entry (in assay [2]; with GFP-tagged RECQL4-6A) was “binds” each time.

These data come from article PMC9178012.
